Peptide text beside a SMILES is read from it. * marks the point of attachment. X1 = Cc1cc[n+]2c(c1)-c1cc(C(=O)*)cc[n+]1[Ir-3]213([c]2c(sc4ccccc24)-c2c4ccccc4cc[n+]21)[c]1c(sc2ccccc12)-c1c2ccccc2cc[n+]13; Isonicotinoyl(2-(4-Me-2-Py)) = Cc1ccnc(-c2cc(C(=O)*)ccn2)c1
Tested on: MDA-MB-231 cells
Test: LSCM co-staining (intracellular localization)
Format: cell-based
Details: 10 μM, 16 h; for Pearson’s correlation coefficient (PCC) with LysoTracker Deep Red: LysoTracker Deep Red 100 nM, 1 h; for PCC with MitoTracker Green: MitoTracker Green 100 nM, 20 min

SMILES	Pearson’s correlation coefficient (PCC) with LysoTracker Deep Red	PCC with MitoTracker Green
Cc1ccnc(-c2cc(C(=O)N[C@@H](CS)C(=O)N[C@@H](C)C(=O)N[C@@H](CO)C(=O)N3CCC[C@H]3C(=O)N[C@@H](CO)C(=O)NCC(=O)N[C@@H](C)C(=O)N[C@@H](CC(C)C)C(=O)N[C@@H](CCCNC(=N)N)C(=O)N[C@@H](CO)C(=O)N[C@@H](CS)C(=O)O)ccn2)c1 [Conjugate 3a-CASP] ({Isonicotinoyl(2-(4-Me-2-Py))}-CASPSGALRSC-OH; C-terminus assumed)	0.72	0.46
CC[C@H](C)[C@H](NC(=O)[C@H](Cc1ccc(O)cc1)NC(=O)[C@H](CCSC)NC(=O)[C@H](CS)NC(=O)c1cc[n+]2c(c1)-c1cc(C)cc[n+]1[Ir-3]213([c]2c(sc4ccccc24)-c2c4ccccc4cc[n+]21)[c]1c(sc2ccccc12)-c1c2ccccc2cc[n+]13)C(=O)N[C@@H](CCC(=O)O)C(=O)N[C@@H](C)C(=O)N[C@@H](CC(C)C)C(=O)N[C@@H](CC(=O)O)C(=O)N[C@@H](CCCCN)C(=O)N[C@@H](Cc1ccc(O)cc1)C(=O)N[C@@H](C)C(=O)N[C@@H](CS)C(=O)O [Conjugate 3a-CMYI] (X1-CMYIEALDKYAC-OH; C-terminus assumed)	0.81	0.28
Cc1cc[n+]2c(c1)-c1cc(C(=O)N[C@@H](CS)C(=O)N[C@@H](Cc3ccc(O)cc3)C(=O)N[C@@H](CC(N)=O)C(=O)N[C@H](C(=O)N[C@@H](CC(N)=O)C(=O)N[C@@H](Cc3c[nH]cn3)C(=O)N[C@H](C(=O)N3CCC[C@H]3C(=O)N[C@@H](CC(C)C)C(=O)N[C@@H](CO)C(=O)N3CCC[C@H]3C(=O)N[C@@H](CCCCN)C(=O)N[C@@H](Cc3ccc(O)cc3)C(=O)O)C(C)C)[C@@H](C)O)cc[n+]1[Ir-3]213([c]2c(sc4ccccc24)-c2c4ccccc4cc[n+]21)[c]1c(sc2ccccc12)-c1c2ccccc2cc[n+]13 [Conjugate 3a-CYNT] (X1-CYNTNHVPLSPKY-OH; C-terminus assumed)	0.69	0.36

Source: article PMC12188478, “Leveraging the Aminothiol-Specific Phosphorogenic Response of Iridium(III) Thioester Complexes for the Development of Intracellular Sensors and Cancer Phototherapeutics” (JACS Au, 2025)
